# Data from the supplement of paper PMC3334620.
# In all, about 33,000 sequences were measured (“E-score (-0.5 to 0.5)”: median about -0.015, highest 2% from about 0.3 on). The list shows a part of the results.
# Target: T1, Abf1 (UniProt P14164)
# T1 sequence: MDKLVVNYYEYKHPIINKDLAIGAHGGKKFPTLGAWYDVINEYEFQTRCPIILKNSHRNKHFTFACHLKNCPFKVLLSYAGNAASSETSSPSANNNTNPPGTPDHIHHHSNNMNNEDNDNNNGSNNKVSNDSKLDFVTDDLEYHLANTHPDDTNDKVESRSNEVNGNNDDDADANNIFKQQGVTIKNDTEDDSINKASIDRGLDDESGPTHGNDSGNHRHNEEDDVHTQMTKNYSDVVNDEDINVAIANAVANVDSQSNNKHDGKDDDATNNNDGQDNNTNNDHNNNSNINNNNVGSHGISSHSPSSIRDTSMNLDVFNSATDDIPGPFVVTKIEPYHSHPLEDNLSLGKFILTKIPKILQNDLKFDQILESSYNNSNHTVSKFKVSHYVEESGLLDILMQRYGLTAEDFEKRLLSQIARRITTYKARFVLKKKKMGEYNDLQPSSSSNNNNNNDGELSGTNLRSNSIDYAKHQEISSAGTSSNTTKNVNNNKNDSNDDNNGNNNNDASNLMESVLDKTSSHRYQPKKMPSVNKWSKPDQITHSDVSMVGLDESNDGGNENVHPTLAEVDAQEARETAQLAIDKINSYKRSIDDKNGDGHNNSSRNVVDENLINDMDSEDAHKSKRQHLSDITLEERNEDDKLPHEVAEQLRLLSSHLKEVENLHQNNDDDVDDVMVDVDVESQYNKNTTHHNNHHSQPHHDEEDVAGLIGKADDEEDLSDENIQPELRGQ
# Test: PBM E-score (8-mer binding enrichment) (E-score (-0.5 to 0.5)); higher = stronger / more preferred TF binding
# Settings: protein concentration: 200 nM; construct: GST-full length
# Protocol: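 Universal 'all 10-mer' protein binding microarrays (Agilent AMADID 015681) probed with GST-tagged S. cerevisiae TFs (full-length or DBD) made by in vitro transcription/translation (PURExpress), about 100-200 nM. Bound TF was detected with fluorescent anti-GST. Each ungapped 8-mer (which stands for itself and its reverse complement) is scored by the PBM enrichment score (E-score), a modified Wilcoxon-Mann-Whitney statistic from -0.5 to +0.5, computed with the Universal PBM Analysis Suite. Scale: above 0.35 generally sequence-specific binding.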
row,Sequence,PBM E-score
1,AGGCAGAG,-0.191
2,ACTCCACC,0.032
3,GGTGGTCA,-0.0604
4,TGTGGAAA,0.0635
5,ATCTTTTC,0.081
6,AACTATTC,0.0304
7,CAAGCGTA,-0.0445
8,CACCTCGC,-0.0945
9,AGTTATTG,0.0563
10,ACGGGAGT,0.214
11,CTTAACAC,0.111
12,CCCTGCAA,-0.213
13,AAGCCCTA,-0.0285
14,CCTTGGCA,-0.211
15,GTATCAAA,0.289
16,CACATTCC,0.00518
17,CCCATAGG,-0.0295
18,CTGGCCAA,-0.118
19,CGGCTATC,0.148
20,AAGGGGCC,-0.226
21,ACGGTTGC,0.104
22,GTTATCGA,0.0373
23,ATGCGCGC,-0.0241
24,ACTTAAAA,0.0763
25,ACAGCGAC,0.0222

row,Sequence,PBM E-score
1,CGGCAGTA,0.0137
2,AGGTAGAG,-0.194
3,ATTCCCGG,0.154
4,GCTCAAGC,-0.203
5,AAAAATAA,0.113
6,TTAAGAAA,0.0332
7,AGAAAATA,0.0727
8,CACGTGGG,-0.0582
9,CCCGGTCC,-0.166
10,GGCCCATA,-0.151
11,AAGCTTGC,-0.183
12,GGACGCTA,-0.131
13,ACCGCGAC,0.0617
14,CCGTAGAA,0.298
15,GATAGAAA,-0.112
16,TCCCAGGA,-0.121
17,ACCTGCCT,-0.0725
18,ATACGGAA,0.299
19,CTAGATAG,-0.0573
20,CCGATCGA,-0.297
21,AGTCACGC,3e-05
22,AAATCTTC,-0.0238
23,GAATTCCA,0.135
24,AGAGAACC,-0.249
25,ACTTGGGC,-0.164

row,Sequence,PBM E-score
1,CCTAAGAG,-0.0103
2,TGGCCCCA,-0.247
3,ATAGGTTC,-0.106
4,GTTCGAAA,0.229
5,AAGTTTTA,0.091
6,CTTATGAA,-0.0835
7,TACAGTAA,0.0132
8,CGTTATCA,0.205
9,AACCCCCT,-0.262
10,CATGGAAG,-0.0245
11,ATGACGGG,0.122
12,ATTACATG,0.0835
13,ACTCTGTA,-0.207
14,AAAGTAGC,0.0993
15,AAGCAATC,0.167
16,TGTTCGAA,-0.0208
17,AACATGAA,0.0277
18,ACTCGTTG,-0.00197
19,GTGGGGTA,-0.0965
20,GAGGTTGC,-0.163
21,AGAACTCC,-0.0954
22,CCCTTCGA,-0.312
23,GAAATCGA,-0.13
24,AAGACAGC,-0.0614
25,ATTTTAAC,-0.0122

row,Sequence,PBM E-score
1,ATTCACCC,-0.0517
2,TCCCGGAA,-0.0382
3,AGCTTCAA,0.0465
4,AGAATCCT,0.0437
5,TAGTGTCA,0.117
6,TACGTTGA,0.134
7,CGCTCTCA,-0.105
8,AATAGGAT,0.144
9,GGAATTAC,0.0503
10,CTCGTTTC,0.129
11,CCGTAATA,0.268
12,CGAGGCAC,-0.0782
13,CGAGAGAA,0.0467
14,GGAGTACC,-0.241
15,ATGAAATC,0.044
16,ACACCCGA,0.0113
17,GCTGAACC,-0.0709
18,AAGATTCC,0.164
19,ATATAGTC,0.142
20,ACCACTGA,-0.163
21,CGTGTATC,0.0937
22,CCCCCTAC,-0.27
23,CCAATGAA,-0.015
24,GGAACCGA,-0.0196
25,CGCCCGGC,-0.161

row,Sequence,PBM E-score
1,AGGGCGTG,-0.117
2,CCCTCGTA,0.126
3,AGTATATG,0.0541
4,CATTGACA,-0.105
5,AACGCCAT,-0.0389
6,CCAACGCG,-0.128
7,CTGCATGA,-0.00665
8,AACGACGT,0.19
9,CACGAAGG,0.179
10,ATGACCAT,0.0632
11,CATCACAG,-0.0365
12,CCCCTAAC,-0.121
13,CCCGGCGA,-0.174
14,GAAGCGGA,-0.207
15,AGGACTAT,-0.28
16,GAGCAAAC,0.0213
17,CTATCTTC,0.115
18,GCAAACGA,0.239
19,ACGCGAGA,-0.145
20,AATTTTCG,0.111
21,AGGACAAG,-0.0635
22,GGCTACAC,-0.275
23,CACAGCAC,0.0916
24,ACAAGTAC,-0.105
25,GACAGGTA,-0.116

row,Sequence,PBM E-score
1,AGGGAGAG,-0.19
2,AAAGACGA,0.201
3,GGATCGCC,0.0808
4,GGATCAAA,0.0154
5,CCGGGACC,-0.271
6,AAGACCAT,-0.119
7,GAAGGGAC,-0.192
8,ATGTTTCA,-0.0473
9,CCTATAGA,-0.0595
10,CCCCGAAG,-0.236
11,AAGCTGAT,0.176
12,GAGATCAA,0.109
13,CGTATATA,0.357
14,CTCACAAG,0.0693
15,ATCCATGG,-0.154
16,CTAAATCC,0.0568
17,GCTTGTAA,0.0117
18,AGTTCTCC,-0.295
19,AACGCTAA,-0.137
20,CTTTGGTC,0.114
21,CGGGATTC,0.117
22,CATTGAGG,-0.0111
23,AGCACTAA,0.154
24,AGGTAGGC,-0.222
25,CACGTCGA,0.0691

# Given as tab-separated lines: part of the list above
row	Sequence	PBM E-score
15	ATCCATGG	-0.154
16	CTAAATCC	0.0568

# Later entries

row,Sequence,PBM E-score
1,CCTTGGTA,0.00383
2,AGAGTCCG,-0.126
3,AGAGTTCC,-0.159
4,ACCTTGTC,-0.0599
5,ACTCCGTG,-0.00947
6,GATATACA,0.111
7,GACCATCC,-0.116
8,CGAGGTCC,-0.125
9,AAACCTCT,-0.176
10,ATTCCATG,-0.0717
11,CTATGCCC,-0.161
12,ATTACGCA,0.14
13,AAACTGGG,-0.289
14,ATGCATTG,-0.0288
15,AGGGGCCG,-0.283
16,CTCCTAAG,-0.278
17,GGGTGATA,0.38
18,CCGATAAA,0.0459
19,CACAGACA,0.0762
20,AACAGGTC,-0.0458
21,ATGAAAAC,0.0592
22,TGACAGAA,0.188

# Not a retest: entries from further up.
row,Sequence,PBM E-score
20,CCGATCGA,-0.297
21,AGTCACGC,3e-05
22,AAATCTTC,-0.0238
